Reference: paper PMC11602657, “Nap1 and Kap114 co-chaperone H2A-H2B and facilitate targeted histone release in the nucleus” (The Journal of Cell Biology, 2024)

Sequences of proteins named here, by UniProt entry; tags and fusion partners are left off. A change or cut given only in a name is not applied to a line headed by its entry.
UniProt P53067: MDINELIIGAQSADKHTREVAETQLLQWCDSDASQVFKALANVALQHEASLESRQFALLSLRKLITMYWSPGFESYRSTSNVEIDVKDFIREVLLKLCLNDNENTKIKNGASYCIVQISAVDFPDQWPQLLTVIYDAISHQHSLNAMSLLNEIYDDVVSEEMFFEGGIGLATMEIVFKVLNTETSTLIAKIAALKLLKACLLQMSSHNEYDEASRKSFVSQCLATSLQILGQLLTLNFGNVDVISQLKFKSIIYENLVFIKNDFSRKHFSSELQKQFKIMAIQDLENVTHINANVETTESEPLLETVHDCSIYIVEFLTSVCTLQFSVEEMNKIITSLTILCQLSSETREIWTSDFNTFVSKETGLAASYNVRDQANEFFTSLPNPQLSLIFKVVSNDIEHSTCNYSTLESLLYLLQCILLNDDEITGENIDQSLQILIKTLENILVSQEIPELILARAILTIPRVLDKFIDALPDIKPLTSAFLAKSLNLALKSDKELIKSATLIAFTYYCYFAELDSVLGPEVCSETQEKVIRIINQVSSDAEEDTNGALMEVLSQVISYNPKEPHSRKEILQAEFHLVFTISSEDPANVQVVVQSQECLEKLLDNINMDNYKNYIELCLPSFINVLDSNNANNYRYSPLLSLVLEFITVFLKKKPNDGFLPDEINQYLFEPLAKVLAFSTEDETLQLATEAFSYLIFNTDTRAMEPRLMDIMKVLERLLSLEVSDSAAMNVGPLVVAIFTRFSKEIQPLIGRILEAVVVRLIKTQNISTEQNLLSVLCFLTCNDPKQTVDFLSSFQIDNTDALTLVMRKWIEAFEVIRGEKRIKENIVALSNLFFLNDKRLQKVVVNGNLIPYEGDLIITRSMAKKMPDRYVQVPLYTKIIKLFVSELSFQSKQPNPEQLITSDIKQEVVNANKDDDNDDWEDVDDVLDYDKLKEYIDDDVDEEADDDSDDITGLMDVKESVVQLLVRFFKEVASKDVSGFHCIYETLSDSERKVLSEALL

Legend:
[1] = target: MBP-Kap114 Δh19L (S. cerevisiae) (UniProt P53067); test: pull-down; MBP-Kap114 (WT or mutant; or MBP alone) 1 µM immobilized on amylose resin, equimolar Nap1_(2) ± H2A-H2B (1 or 2 µM) ± Ran^GTP; Assay Buffer (20 mM HEPES pH 7.4, 150 mM NaCl, 2 mM MgCl2, 10% glycerol, 2 mM DTT), 30 min at 4°C; Coomassie-stained SDS-PAGE; both purified
[2] = target: MBP-Kap114 Δh19L (S. cerevisiae) (UniProt P53067); test: as above; remark: listed apart in the source

binding [1] | binding [2] | Molecule
binds |  | Sc Ran^GTP (Gsp1 residues 1–179, Q71L) (from UniProt P32835 1-179) (enzyme)
 | no binding (tested: 1 µM) | Nap1 FL (C200A, C249A, C272A) (natural protein, S. cerevisiae, UniProt P25293 1-417, looked up, Nap1 (nucleosome assembly protein 1), S. cerevisiae, full length (FL), with C200A, C249A, C272A for specific labeling on 414C; pHAT4 vector, gift from Sheena D'Arcy; Counted as a dimer (Nap1_(2)) in all molar ratios; alone a mixture of dimers and tetramers; also called Nap1_(2); Nap1_(2) FL; source: E. coli BL21 gold, purified (Ni-NTA, TEV cleavage, HiTrap Q, Superdex S200)) MSDPIRTKPKSSMQIDNAPTPHNTPASVLNPSYLKNGNPVRAQAQEQDDKIGTINEEDILANQPLLLQSIQDRLGSLVGQDSGYVGGLPKNVKEKLLSLKTLQSELFEVEKEFQVEMFELENKFLQKYKPIWEQRSRIISGQEQPKPEQIAKGQEIVESLNETELLVDEEEKAQNDSEEEQVKGIPSFWLTALENLPIVADTITDRDAEVLEYLQDIGLEYLTDGRPGFKLLFRFDSSANPFFTNDILAKTYFYQKELGYSGDFIYDHAEGAEISWKDNAHNVTVDLEMRKQRNKTTKQVRTIEKITPIESFFNFFDPPKIQNEDQDEELEEDLEERLALDYSIGEQLKDKLIPRAVDWFTGAALEFEFEEDEEEADEDEDEEEDDDHGLEDDDGESAEEQDDFAGRPEQAPECKQS

Read-outs that look alike come from different tables or passages of the source. Results are given in words; binding and its absence hold for the method and conditions named. For some assays here: Binding calls can cover weak binding; strength is not graded here.
